Literature values, collected in patent publication US11213486B2, “Drug-containing fat emulsion and nethod for producing same” (Techno Guard Co. Ltd., priority 2017, dated 2022).

Details: of the drug contained in the emulsion

Row | Structure (SMILES) | Solubility in water (expression in Japanese Pharmacopoeia)
1 | COc1ccc2c(c1)c(CC(=O)O)c(C)n2C(=O)c1ccc(Cl)cc1 [Indometacin, indometacin] | Practically insoluble
2 | C=CC[C@@H]1/C=C(\C)C[C@H](C)C[C@H](OC)[C@H]2O[C@@](O)(C(=O)C(=O)N3CCCC[C@H]3C(=O)O[C@H](/C(C)=C/[C@@H]3CC[C@@H](O)[C@H](OC)C3)[C@H](C)[C@@H](O)CC1=O)[C@H](C)C[C@@H]2OC [Tacrolimus, tacrolimus] | Practically insoluble
